Test results taken from PubChem BioAssay AID540303 (National Center for Advancing Translational Sciences (NCATS), 2011).
Out of some 330,000 compounds screened, about 1,000 (0.3%) were called active. Inconclusive means that the source gave no clear call. Such entries were picked first, then a sample of the others. The call rests on the fitted dose curve; in most records, active means well fitted inhibition curve with a large enough effect; inconclusive means small, poorly fitted or top-dose-only effect; inactive means no such curve, though single readings can be large or run the other way; tested in mouse RAW 264.7 cells. Where the call is inconclusive, the potency comes from a doubtful curve fit.
On the % scale 0 is the no-effect control and ±100 the full control effect; potency means the concentration at half of the fitted maximal effect.

Experiment: qHTS for Inhibitors of Cell Surface uPA Generation; further: nearly all actives have a fitted effect of over 55% in size
Details: cell surface uPA generation assay; series mostly up to 38.3 µM; activity change, negative = inhibition: at the top concentration
How it was run: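 Intracellular ATP by ATPlite luminescence serves as read-out: inhibited cell-surface uPA generation prevents LF translocation, preserving ATP. Murine RAW 264.7 macrophages were treated 24 h at 37 C with five-fold serial dilutions, up to 38.3 uM final.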
For `O=C(C/C=N\OCc1ccc(Cl)cc1Cl)Nc1ccccc1`, the “activity change, negative = inhibition” value was inactive: 0.846%. For `Nc1ccc(O)c([N+](=O)[O-])c1`, the Potency was inconclusive: 4.47 µM [inhibitor, partial curve, poor fit]. For `CNC(=O)c1[nH]cnc1C(=O)Nc1ccc(Cl)cc1`, the Potency was inconclusive: 8.91 µM [inhibitor, partial curve, poor fit]. With `CC1=CC(=O)C=C(C)C1=NOc1ccccc1[N+](=O)[O-]` the Potency was inconclusive: 4.47 µM [inhibitor, partial curve, poor fit]. For `CC1CC1C(=O)Nc1ccc(-c2ccccc2)cc1` (stereo not given), the Potency was inconclusive: 6.31 µM [inhibitor, partial curve, poor fit]. With `O=C1/C(=C/c2ccccc2O)SC(=S)N1Cc1cccnc1` the Potency was inconclusive: 7.94 µM [inhibitor, single point]. For `COc1ccc(CCNc2ncnc3c2[nH]c2cc(OC)c(OC)cc23)cc1OC`, the “activity change, negative = inhibition” value was inactive: -5.57%. For `CCn1c([N+](=O)[O-])nc2c1c(=O)[nH]c(=O)n2C`, the Potency was active: 10 µM. In the case of `C=CCC[C@H](Cc1ccc(F)cc1)C(=O)OC[C@@H](C)NC(=O)[C@@H](CC=C)CC(=O)N[C@H](CO)Cc1ccccc1`, the Potency is reported as inconclusive: 12.6 µM [inhibitor, single point]. For `CC1(C)CC(=O)C2=C(C1)NC(Nc1nc3ccccc3o1)=NC2c1ccccn1` (stereo not given), the “activity change, negative = inhibition” value was inactive: 2.13%. For `O=C(N=C1N=C2C=CC=CN2Cc2ccccc21)c1ccc(S(=O)(=O)N2CCOCC2)cc1`, the Potency was inconclusive: 14.1 µM [inhibitor, single point]. With `COc1ccccc1CN1CCC(CNS(=O)(=O)c2cc(-c3cc(C)no3)ccc2C)CC1` the Potency was inconclusive: 8.91 µM [inhibitor, partial curve, poor fit]. With `COc1ccc(C(NC(C)=O)c2cc(Cl)c3cccnc3c2O)cc1OC` (stereo not given) the “activity change, negative = inhibition” value was inactive: -6.37%. With `O=C(O)c1cccc(-c2noc(-c3cccc(Cl)c3)n2)c1` the Potency was inconclusive: 0.891 µM [inhibitor, full curve, poor fit]. With `CC(=O)c1ccc(-c2ccc([C@H]3[C@H]4C=CC[C@@H](C)[C@@H]4C(=O)N3Cc3ccccc3)c(F)c2)cc1` the Potency was inconclusive: 22.4 µM [inhibitor, single point]. For `COc1ccccc1/C=C/C(=O)NC(=S)NC(C)C`, the “activity change, negative = inhibition” value was inactive: 2.05%. In the case of `CNC(=S)N1CCc2cc(OC)c(OC)cc2C1COc1ccc(OC)cc1` (stereo not given), the “activity change, negative = inhibition” value is reported as inactive: 3.15%. With `CCOc1cc(CN2CCCC(CO)(Cc3ccc(F)cc3F)C2)ccc1OC` (stereo not given) the Potency was inconclusive: 11.2 µM [inhibitor, single point]. In the case of `CNC(=S)N/N=C(\C)c1ccc(C(C)(C)C)cc1`, the “activity change, negative = inhibition” value is reported as inactive: 13.6%. In the case of `CCN1C(=O)C(O)(C2COC(C)(C)CC2=O)c2cc(Br)ccc21` (stereo not given), the Potency is reported as inconclusive: 2.82 µM [inhibitor, full curve]. In the case of `COc1cc2c(ccc3cc(OC)c(OC)c(O)c32)cc1O`, the Potency is reported as active: 10 µM. In the case of `CCCCC(=O)NC(=S)Nc1cccc(NC(=O)c2ccccc2)c1`, the “activity change, negative = inhibition” value is reported as inactive: 5.86%. With `Cc1ccc(OCC(=O)Oc2cccc(C)c2)cc1` the “activity change, negative = inhibition” value was inactive: -9.74%. In the case of `NCCCCCCNS(=O)(=O)c1cccc2c(Cl)cccc12`, the Potency is reported as inconclusive: 6.31 µM [inhibitor, single point]. With `COc1ccccc1Nc1nc(-c2sc(NC(=O)CC(C)C)nc2C)cs1` the “activity change, negative = inhibition” value was inactive: -6%. With `Nc1nc(N)c2[nH]cnc2n1` the Potency was inconclusive: 6.31 µM [inhibitor, partial curve, poor fit]. In the case of `Cc1cccc(CCN2C(N(C)C)=NC[C@@H]2Cc2ccccc2)c1`, the Potency is reported as active: 10 µM. With `COc1ccccc1Nc1nc2ccccc2n1C` the Potency was inconclusive: 22.4 µM [inhibitor, single point]. For `Cc1onc(C(=O)N2CCC(Cc3ccccc3)CC2)c1[N+](=O)[O-]`, the Potency was inconclusive: 7.94 µM [inhibitor, partial curve, poor fit]. In the case of `C=C(C)c1nc(Oc2ccccc2)nc(Oc2ccccc2)n1`, the “activity change, negative = inhibition” value is reported as inactive: -12.1%. In the case of `N=c1n(CCN2CCCC2)c2ccccc2n1CC(O)c1ccc(Cl)c(Cl)c1` (stereo not given), the Potency is reported as inconclusive: 10 µM [inhibitor, single point]. For `Fc1c(CSC(=S)N2CCOCC2)cccc1CSC(=S)N1CCOCC1`, the “activity change, negative = inhibition” value was inactive: 0.866%. In the case of `O=C(c1ccc2c3n(nc2c1)-c1ccccc1CO3)N1CCOCC1`, the Potency is reported as active: 7.08 µM. For `O=C(Nc1ccc2c(c1)OCO2)Nc1ccccc1F`, the Potency was inconclusive: 3.98 µM [inhibitor, partial curve]. With `CCOC(=O)c1oc2ccccc2c1NC(=O)CCl` the Potency was inconclusive: 8.91 µM [inhibitor, single point]. For `CC1CCN(C(=O)c2[nH]cnc2C(=O)N[C@@H](C)C(=O)OCc2ccccc2)CC1`, the Potency was inconclusive: 1.12 µM [inhibitor, partial curve, poor fit]. In the case of `Cc1n[nH]c(=O)n1-c1ccc(OC(F)(F)F)cc1`, the “activity change, negative = inhibition” value is reported as inactive: 6.44%. For `COC(=O)c1ccc(C(=O)NC2CC(C)(C)Cc3c2cnn3-c2ccc(F)cc2)nc1` (stereo not given), the Potency was inconclusive: 8.91 µM [inhibitor, partial curve, poor fit]. For `CC(=O)N1CCN(S(=O)(=O)c2cccc(C(=O)OCC(=O)N(Cc3ccccc3)C(C)(C)C)c2)CC1`, the Potency was inconclusive: 8.91 µM [inhibitor, partial curve, poor fit]. For `Cc1ccc(CN2CCN(/N=C/c3ccc(O)c(O)c3)CC2)cc1`, the Potency was inconclusive: 7.08 µM [inhibitor, partial curve, poor fit]. In the case of `COc1ccc2nc(C)cc(Nc3ccc(N4CCN(C)CC4)cc3)c2c1`, the Potency is reported as inconclusive: 12.6 µM [inhibitor, single point]. With `O=C(Nc1cccnc1)c1cnn2cccnc12` the “activity change, negative = inhibition” value was inactive: -24.4%. For `CCCCCCCC(=O)NNC(=O)c1c(O)c2ccccc2n(CCC)c1=O`, the “activity change, negative = inhibition” value was inactive: 0.338%. For `COc1ccc(-c2cc3ccccc3oc2=O)cc1`, the Potency was inconclusive: 11.2 µM [inhibitor, partial curve, poor fit]. For `O=C(COc1ccc(F)cc1)Nc1nccs1`, the Potency was inconclusive: 14.1 µM [inhibitor, partial curve, poor fit]. With `O=C(CCn1cnc(-c2ccccc2)c1-c1ccccc1)N/N=C/c1ccccc1O` the Potency was inconclusive: 11.2 µM [inhibitor, single point]. In the case of `Cn1nc(NC(=O)C(F)(F)F)c2ncc(-c3ccc(Cl)cc3)nc21`, the Potency is reported as inconclusive: 1.41 µM [inhibitor, partial curve, poor fit]. With `CCOc1ccc(NC(=O)c2csc3c2CCCC3)cc1` the Potency was inconclusive: 10 µM [inhibitor, single point]. In the case of `O=C(Nc1ccc(Oc2cccnc2)cc1)C1CCCCN1Cc1ccc(CO)o1` (stereo not given), the Potency is reported as inconclusive: 25.1 µM [inhibitor, single point]. For `CS(=O)(=O)c1ccc2nc(NC(=O)c3ccco3)sc2c1`, the Potency was active: 10 µM. In the case of `Nc1c(Cl)ncnc1NCc1ccccc1`, the Potency is reported as inconclusive: 2.82 µM [inhibitor, full curve]. For `O=c1c2c3c(sc2nc(NCCO)n1CCc1ccccc1)CCCCC3`, the Potency was inconclusive: 31.6 µM [inhibitor, single point]. For `Cc1cc2ncc(-c3cccs3)nc2cc1C`, the Potency was inconclusive: 2.82 µM [inhibitor, partial curve, poor fit]. With `CCOC(=O)C1=C(CC)Nc2ccccc2N=C1NC(=O)c1ccc(OC)c(S(=O)(=O)N2CCCCC2C)c1` (stereo not given) the Potency was inconclusive: 1.26 µM [inhibitor, partial curve, poor fit]. With `CC(=O)c1sc(NC(=O)c2cc(=O)c3ccccc3o2)nc1C` the Potency was inconclusive: 1.12 µM [inhibitor, full curve, poor fit]. In the case of `O=C(Nc1nnc(C2CC2)s1)c1cc(S(=O)(=O)N2CCCCC2)ccc1N1CCOCC1`, the Potency is reported as inconclusive: 12.6 µM [inhibitor, single point]. With `CC(=O)c1c(C)[nH]c(C(=O)COC(=O)C2(C)CC2(Cl)Cl)c1C` (stereo not given) the Potency was inconclusive: 11.2 µM [inhibitor, single point]. In the case of `CCn1nc2cc(C(=O)NCCc3cccs3)ccc2c1OC`, the Potency is reported as inconclusive: 8.91 µM [inhibitor, partial curve, poor fit]. In the case of `COc1ccc(-n2c(N)c(Br)c(=O)[nH]c2=O)cc1`, the “activity change, negative = inhibition” value is reported as inactive: -0.479%. With `Cc1occc1C(=O)Nc1cccc2ccccc12` the “activity change, negative = inhibition” value was inactive: -2.62%. For `CC(=O)C1=C(C)OC2(O)c3ccccc3C(=O)C12O` (stereo not given), the Potency was inconclusive: 8.91 µM [inhibitor, single point]. In the case of `Cc1ccsc1C(=O)N(CC(C)C)c1c(N)n(Cc2ccccc2)c(=O)[nH]c1=O`, the Potency is reported as inconclusive: 2.82 µM [inhibitor, single point]. For `CC(C)(C)c1ccc(Cn2nnc3c(=O)[nH]c(C4CCCN(C(=O)Cc5cccs5)C4)nc32)cc1` (stereo not given), the Potency was inconclusive: 7.08 µM [inhibitor, partial curve, poor fit]. In the case of `COc1cc(OC)nc(NC(=O)NS(=O)(=O)c2ccccc2Cl)n1`, the “activity change, negative = inhibition” value is reported as inactive: 1.91%. In the case of `CCCCNC(=O)[C@@](CC)(ONc1ccccc1C(F)(F)F)c1cccc2ccccc12`, the Potency is reported as inconclusive: 5.01 µM [inhibitor, partial curve]. For `CCN(CC)C(=O)c1nc[nH]c1C(=O)N1CCN(c2ccccc2)CC1`, the Potency was inconclusive: 12.6 µM [inhibitor, single point]. In the case of `Cc1ccc(C)c(N2CC(C(=O)Nc3nccs3)CC2=O)c1` (stereo not given), the “activity change, negative = inhibition” value is reported as inactive: 4.68%. In the case of `Nc1c(N(Cc2ccccc2)C(=O)COc2ccc([N+](=O)[O-])cc2)c(=O)[nH]c(=O)n1Cc1ccccc1`, the Potency is reported as inconclusive: 10 µM [inhibitor, partial curve, poor fit]. For `O=[N+]([O-])c1ccc(/C=N/NC(=S)Nc2ccccc2)o1`, the “activity change, negative = inhibition” value was inactive: -3.22%. In the case of `Cc1ccc2oc(-c3ccc(C)c(NC(=S)NC(=O)c4cccs4)c3)nc2c1`, the Potency is reported as inconclusive: 5.01 µM [inhibitor, partial curve, poor fit].
